These are yes or no findings as the source states them, for the method shown. Some results given as binding are weak or reduced against the parent protein; the word gives no strength.
B1: Autophosphorylated human recombinant GNK (enzyme)
chain: MSVLGEYERHCDSINSDFGSESGGCGDSSPGPSASQGPRAGGGAAEQEELHYIPIRVLGRGAFGEATLYRRTEDDSLVVWKEVDLTRLSEKERRDALNEIVILALLQHDNIIAYYNHFMDNTTLLIELEYCNGGNLYDKILRQKDKLFEEEMVVWYLFQIVSAVSCIHKAGILHRDIKTLNIFLTKANLIKLGDYGLAKKLNSEYSMAETLVGTPYYMSPELCQGVKYNFKSDIWAVGCVIFELLTLKRTFDATNPLNLCVKIVQGIRAMEVDSSQYSLELIQMVHSCLDQDPEQRPTADELLDRPLLRKRRREMEEKVTLLNAPTKRPRSSTVTEAPIAVVTSRTSEVYVWGGGKSTPQKLDVIKSGCSARQVCAGNTHFAVVTVEKELYTWVNMQGGTKLHGQLGHGDKASYRQPKHVEKLQGKAIHQVSCGDDFTVCVTDEGQLYAFGSDYYGCMGVDKVAGPEVLEPMQLNFFLSNPVEQVSCGDNHVVVLTRNKEVYSWGCGEYGRLGLDSEEDYYTPQKVDVPKALIIVAVQCGCDGTFLLTQSGKVLACGLNEFNKLGLNQCMSGIINHEAYHEVPYTTSFTLAKQLSFYKIRTIAPGKTHTAAIDERGRLLTFGCNKCGQLGVGNYKKRLGINLLGGPLGGKQVIRVSCGDEFTIAATDDNHIFAWGNGGNGRLAMTPTERPHGSDICTSWPRPIFGSLHHVPDLSCRGWHTILIVEKVLNSKTIRSNSSGLSIGTVFQSSSPGGGGGGGGGEEEDSQQESETPDPSGGFRGTMEADRGMEGLISPTEAMGNSNGASSSCPGWLRKELENAEFIPMPDSPSPLSAAFSESEKDTLPYEELQGLKVASEAPLEHKPQVEASSPRLNPAVTCAGKGTPLTPPACACSSLQVEVERLQGLVLKCLAEQQKLQQENLQIFTQLQKLNKKLEGGQQVGMHSKGTQTAKEEMEMDPKPDLDSDSWCLLGTDSCRPSL
modifications: autophosphorylated (sites not given)
B2: Human recombinant GNK (hu-rGNK) (enzyme)
chain: MSVLGEYERHCDSINSDFGSESGGCGDSSPGPSASQGPRAGGGAAEQEELHYIPIRVLGRGAFGEATLYRRTEDDSLVVWKEVDLTRLSEKERRDALNEIVILALLQHDNIIAYYNHFMDNTTLLIELEYCNGGNLYDKILRQKDKLFEEEMVVWYLFQIVSAVSCIHKAGILHRDIKTLNIFLTKANLIKLGDYGLAKKLNSEYSMAETLVGTPYYMSPELCQGVKYNFKSDIWAVGCVIFELLTLKRTFDATNPLNLCVKIVQGIRAMEVDSSQYSLELIQMVHSCLDQDPEQRPTADELLDRPLLRKRRREMEEKVTLLNAPTKRPRSSTVTEAPIAVVTSRTSEVYVWGGGKSTPQKLDVIKSGCSARQVCAGNTHFAVVTVEKELYTWVNMQGGTKLHGQLGHGDKASYRQPKHVEKLQGKAIHQVSCGDDFTVCVTDEGQLYAFGSDYYGCMGVDKVAGPEVLEPMQLNFFLSNPVEQVSCGDNHVVVLTRNKEVYSWGCGEYGRLGLDSEEDYYTPQKVDVPKALIIVAVQCGCDGTFLLTQSGKVLACGLNEFNKLGLNQCMSGIINHEAYHEVPYTTSFTLAKQLSFYKIRTIAPGKTHTAAIDERGRLLTFGCNKCGQLGVGNYKKRLGINLLGGPLGGKQVIRVSCGDEFTIAATDDNHIFAWGNGGNGRLAMTPTERPHGSDICTSWPRPIFGSLHHVPDLSCRGWHTILIVEKVLNSKTIRSNSSGLSIGTVFQSSSPGGGGGGGGGEEEDSQQESETPDPSGGFRGTMEADRGMEGLISPTEAMGNSNGASSSCPGWLRKELENAEFIPMPDSPSPLSAAFSESEKDTLPYEELQGLKVASEAPLEHKPQVEASSPRLNPAVTCAGKGTPLTPPACACSSLQVEVERLQGLVLKCLAEQQKLQQENLQIFTQLQKLNKKLEGGQQVGMHSKGTQTAKEEMEMDPKPDLDSDSWCLLGTDSCRPSL

Columns and labels:
[1] = target: Autophosphorylated human recombinant GNK (human) (UniProt Q8TD19); assay: self-association; Superdex 200 size exclusion chromatography
[2] = target: Autophosphorylated human recombinant GNK (human) (UniProt Q8TD19); assay: self-association; SDS-PAGE time course after autophosphorylation
[3] = target: Human recombinant GNK (hu-rGNK) (human) (UniProt Q8TD19); assay: self-association; Superdex 200 size exclusion chromatography

| Binder | binding [1] | binding [2] | binding [3] |
| --- | --- | --- | --- |
| B1 | binds | binds | – |
| B2 | – | – | binds |

From patent US20020182656A1
